The list is a part of this screen's results and no random one: it is rich in T/C values a quarter to a half above the control, in often repeated tests (any T/C) and in doses without a T/C. Further doses and runs are listed elsewhere. T/C: endpoint of the treated group in % of that of the vehicle group. Some doses have a count of surviving animals in place of a T/C: the source files T/C as zero there, which appears to mark a toxic dose or a test without result, not a measured value. Some survivor counts are full or nearly so, which does not show that the dose was tolerated: the source hardly ever lists a survival T/C far under the control, and the zero likely stands for such cases as well. Survivors were counted at the toxicity check, usually on the fifth day, unless a day is given; later deaths do not show. Schedules are NCI's codes, taken here to give the interval after Q, in days (D) or hours (H), and the number of doses after X. Some schedule codes hold Z or #, which are not explained here. Some structures stand for samples that the source files as different forms (salt, stereo form or complex); doses refer to the form tested. Additions like (4×) count equal records among those shown. Some entries hold several experiments; the values are given in rising order. For survival time, this PubChem deposit counts one and a half times the control or more as active, and values a quarter to a half above the control carry no call in these data; other NCI protocols may use other cut-offs. Some T/C values are followed by the survivors on the day toxicity was checked, most often the fifth; where none is given, no animal had died by that day.
Tested on: L1210 leukemia ip in BDF1 mice, survival T/C
Test: NCI In Vivo Anticancer Drug Screen. Data for tumor model L1210 Leukemia (intraperitoneal) in B6D2F1 (BDF1) mice
Conditions: T/C endpoint: mean survival time, higher T/C = longer survival
[1] = dose: 200.0 mg/kg/injection, schedule: Q01DX001 (ip), vehicle: Klucel (hydroxypropylcellulose) (HPC)
[2] = dose: 100.0 mg/kg/injection, schedule: Q01DX001 (ip), vehicle: saline
[3] = dose: 200.0 mg/kg/injection, schedule: Q01DX001 (ip), vehicle: saline
[4] = dose: 200.0 mg/kg/injection, schedule: Q01DX009 (ip), vehicle: saline
[5] = dose: 100.0 mg/kg/injection, schedule: Q04DX003 (ip), vehicle: saline
[6] = dose: 200.0 mg/kg/injection, schedule: Q04DX003 (ip), vehicle: saline
[7] = dose: 400.0 mg/kg/injection, schedule: Q01DX009 (ip), vehicle: saline
[8] = dose: 200.0 mg/kg/injection, schedule: Q04DX002 (ip), vehicle: Klucel (hydroxypropylcellulose) (HPC)
[9] = dose: 400.0 mg/kg/injection, schedule: Q04DX002 (ip), vehicle: Klucel (hydroxypropylcellulose) (HPC)
[10] = dose: 200.0 mg/kg/injection, schedule: Q01DX009 (ip), vehicle: Klucel (hydroxypropylcellulose) (HPC)
[11] = dose: 100.0 mg/kg/injection, schedule: Q01DX009 (ip), vehicle: Klucel (hydroxypropylcellulose) (HPC)
[12] = dose: 400.0 mg/kg/injection, schedule: Q01DX001 (ip), vehicle: saline

COCCCNCCCN1CC1
T/C (dose: 31.25 mg/kg/injection, schedule: Q01DX009 (ip), vehicle: saline): 134 % of control | T/C (dose: 75.0 mg/kg/injection, schedule: Q04DX003 (ip), vehicle: saline): 125 % of control | survivor count (dose: 125.0 mg/kg/injection, schedule: Q01DX009 (ip), vehicle: saline): 2 of 6 | T/C (dose: 125.0 mg/kg/injection, schedule: Q04DX003 (ip), vehicle: saline): 129 % of control [4 of 6 alive] | survivor count (dose: 150.0 mg/kg/injection, schedule: Q04DX003 (ip), vehicle: saline): 3 of 6 | survivor count (dose: 250.0 mg/kg/injection, schedule: Q01DX009 (ip), vehicle: saline): 0 of 6 | survivor count (dose: 300.0 mg/kg/injection, schedule: Q04DX003 (ip), vehicle: saline): 0 of 6

Nc1cccc(CCC(=O)Nc2cccnc2)c1
survivor count (dose: 100.0 mg/kg/injection, schedule: Q01DX001 (ip), vehicle: Klucel (hydroxypropylcellulose) (HPC)): 3 of 6 | survivor count [1]: 1 of 6 | survivor count (dose: 400.0 mg/kg/injection, schedule: Q01DX001 (ip), vehicle: Klucel (hydroxypropylcellulose) (HPC)): 0 of 6

Clc1ccccc1/C=N/Nc1c2ccccc2nc2ccccc12
survivor count [2]: 4 of 4 | survivor count [3]: 4 of 4

COc1cccc(/C(C)=N\Nc2ccc([N+](=O)[O-])cc2[N+](=O)[O-])c1OC
survivor count [4]: 6 of 6 | survivor count (dose: 200.0 mg/kg/injection, schedule: Q04DX003 (ip), vehicle: saline with Tween-80): 6 of 6

CC1(C)CC[N+]1(C)C
T/C (dose: 25.0 mg/kg/injection, schedule: Q04DX003 (ip), vehicle: saline): 127 % of control | survivor count [5]: 0 of 6 and 2 of 6 | survivor count (dose: 120.0 mg/kg/injection, schedule: Q04DX003 (ip), vehicle: saline): 1 of 6 | survivor count [6]: 0 of 6 (2×) | survivor count (dose: 240.0 mg/kg/injection, schedule: Q04DX003 (ip), vehicle: saline): 0 of 6 | survivor count (dose: 400.0 mg/kg/injection, schedule: Q04DX003 (ip), vehicle: saline): 0 of 6 (2×)

CC(=O)N(C)c1ccc(NC(=O)Nc2c(C)cccc2C)cc1
T/C (dose: 100.0 mg/kg/injection, schedule: Q04DX002 (ip), vehicle: saline): 126 % of control

CC(C)c1ccc(/C=N/NC(=O)c2ccncc2)cc1
survivor count [4]: 2 of 6 | survivor count [7]: 0 of 6

CN1C2CC(=O)CC1C1CC2C1
survivor count (dose: 50.0 mg/kg/injection, schedule: Q04DX002 (ip), vehicle: Klucel (hydroxypropylcellulose) (HPC)): 2 of 3 | survivor count (dose: 100.0 mg/kg/injection, schedule: Q04DX002 (ip), vehicle: Klucel (hydroxypropylcellulose) (HPC)): 0 of 3 | survivor count [8]: 0 of 3 | survivor count [9]: 0 of 3

c1ccc(N=NNc2ccccc2)cc1
survivor count (dose: 50.0 mg/kg/injection, schedule: Q01DX009 (ip), vehicle: saline with Tween-80): 5 of 6 | survivor count (dose: 100.0 mg/kg/injection, schedule: Q01DX009 (ip), vehicle: saline with Tween-80): 3 of 6 | survivor count (dose: 200.0 mg/kg/injection, schedule: Q01DX009 (ip), vehicle: saline with Tween-80): 3 of 6

CC1(C)OCC2SC(n3cnc4c(N)ncnc43)C(O)C2O1 (stereo not given)
survivor count (dose: 200.0 mg/kg/injection, schedule: Q01DX005 (ip), vehicle: saline): 3 of 6

Nc1c(Cl)cc2c(c1Br)C(=O)c1ccccc1C2=O
survivor count [1]: 3 of 3

CC(=O)c1ccc[n+](Cc2ccc3c(c2)OCO3)c1
survivor count (dose: 300.0 mg/kg/injection, schedule: Q01DX001 (ip), vehicle: carboxymethylcellulose (CMC)): 0 of 6

COc1ccc(OC)c(NC(=O)Nc2cc(C(F)(F)F)ccc2Cl)c1
survivor count [10]: 5 of 6

Cc1cccc(CN=C(N)CSS(=O)(=O)O)n1
survivor count [11]: 0 of 3 | survivor count [8]: 0 of 3 | survivor count [9]: 0 of 3

O=C(O)c1ccc2c(c1Cl)C(=O)c1ccccc1C2=O
survivor count (dose: 400.0 mg/kg/injection, schedule: Q04DX003 (ip), vehicle: saline with Tween-80): 2 of 6

ClC1(Cl)C2C=CC=CCC21 (stereo not given)
survivor count (dose: 400.0 mg/kg/injection, schedule: Q04DX003 (ip), vehicle: other): 6 of 6

CC1(C)N=C(N)N=C(N)N1c1cccc(OCc2cccc(NC(=O)CBr)c2)c1
survivor count (dose: 80.0 mg/kg/injection, schedule: Q01DX001 (ip), vehicle: saline): 0 of 6 | survivor count [2]: 1 of 4 | survivor count [3]: 0 of 4 | survivor count [12]: 0 of 4

COc1cc(C(=O)OC(C)CN2CCN(C(=O)c3cc(OC)c(OC)c(OC)c3)CC2)cc(OC)c1OC (stereo not given)
survivor count [7]: 4 of 6

CC(C)C[n+]1cc([O-])on1
survivor count (dose: 25.0 mg/kg/injection, schedule: Q01DX009 (ip), vehicle: Klucel (hydroxypropylcellulose) (HPC)): 0 of 6 | survivor count [11]: 0 of 6 | survivor count [10]: 0 of 6 | survivor count (dose: 400.0 mg/kg/injection, schedule: Q01DX009 (ip), vehicle: Klucel (hydroxypropylcellulose) (HPC)): 0 of 6

CC1(CNC(=O)C(=O)NCC2(C)CO2)CO1 (stereo not given)
T/C (dose: 35.0 mg/kg/injection, schedule: Q01DX009 (ip), vehicle: saline): 136 % of control | T/C (dose: 66.0 mg/kg/injection, schedule: Q01DX Z (ip), vehicle: other): 140 % of control | T/C (dose: 75.0 mg/kg/injection, schedule: Q01DX009 (ip), vehicle: saline): 128 % of control | T/C (dose: 100.0 mg/kg/injection, schedule: Q01DX Z (ip), vehicle: carboxymethylcellulose (CMC)): 134 % of control | T/C (dose: 100.0 mg/kg/injection, schedule: Q01DX Z (ip), vehicle: saline): 129 and 130 % of control | T/C [5]: 136 % of control | T/C (dose: 132.0 mg/kg/injection, schedule: Q04DX003 (ip), vehicle: saline): 148 % of control | T/C (dose: 150.0 mg/kg/injection, schedule: Q01DX Z (ip), vehicle: saline): 131 % of control | T/C [3]: 135 % of control | T/C [6]: 140 % of control | T/C (dose: 225.0 mg/kg/injection, schedule: Q01DX Z (ip), vehicle: saline): 135 % of control | survivor count (dose: 338.0 mg/kg/injection, schedule: Q01DX Z (ip), vehicle: carboxymethylcellulose (CMC)): 2 of 6 | T/C (dose: 338.0 mg/kg/injection, schedule: Q01DX Z (ip), vehicle: saline): 148 % of control | T/C [12]: 138 % of control | survivor count [12]: 0 of 4 | survivor count [7]: 4 of 6 | survivor count (dose: 500.0 mg/kg/injection, schedule: Q01DX Z (ip), vehicle: other): 3 of 6 | survivor count (dose: 600.0 mg/kg/injection, schedule: Q01DX001 (ip), vehicle: saline): 5 of 6 | survivor count (dose: 750.0 mg/kg/injection, schedule: Q01DX Z (ip), vehicle: other): 0 of 6

C/C(=N/N)c1ccccc1O
survivor count (dose: 64.0 mg/kg/injection, schedule: Q04DX002 (ip), vehicle: saline): 0 of 3 | survivor count (dose: 400.0 mg/kg/injection, schedule: Q04DX002 (ip), vehicle: saline): 0 of 3

CCC1CC2c3cc(OC)c(OC)cc3CCN2CC1(O)Cc1ccncc1 (stereo not given)
survivor count (dose: 400.0 mg/kg/injection, schedule: Q04DX003 (ip), vehicle: carboxymethylcellulose (CMC)): 2 of 6

N#CC1(C#N)CC=CCC1(C#N)C#N
survivor count (dose: 50.0 mg/kg/injection, schedule: Q01DX009 (ip), vehicle: other): 4 of 6 | survivor count (dose: 100.0 mg/kg/injection, schedule: Q01DX009 (ip), vehicle: other): 0 of 6 | survivor count (dose: 200.0 mg/kg/injection, schedule: Q01DX009 (ip), vehicle: other): 0 of 6 | survivor count (dose: 400.0 mg/kg/injection, schedule: Q01DX009 (ip), vehicle: other): 0 of 6

Cc1csc[n+]1C
survivor count (dose: 300.0 mg/kg/injection, schedule: Q01DX001 (ip), vehicle: saline): 2 of 6

— PubChem BioAssay AID248 (DTP/NCI, 2004)
